# Results: PubChem BioAssay AID2685 (National Center for Advancing Translational Sciences (NCATS), 2010)
# Some of the results follow. These are further read-outs of the screen, such as a control signal, another cell line or another target. No call is given for them. The list favours compounds with an active or inconclusive main result. The note in brackets gives the kind of curve behind each potency; many fits are weak.
# Test: qHTS Assay for Lipid Storage Modulators in Drosophila S3 Cells;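 for cell number change: cells counted by Cell Tracker Red CMTPX staining in the red channel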
# Details: BODIPY lipid droplet fluorescence, 18-24 h; for cell number change: measured here: cell count max response, cells fed with added oleic acid
# Method in brief: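 Laser-scanning cytometry quantifies lipid droplet accumulation (500–530 nm total intensity; droplet/cell object ratio) in oleic acid-fed (400 uM added) Drosophila S3 cells treated with a concentration series. 20 uM Triacsin C defined 100% inhibition.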
# [1] = measured here: lipid fluorescence (Fed channel) AC50, cells fed with added oleic acid
# [2] = measured here: cell number channel AC50, cells fed with added oleic acid
SMILES,cell number change,AC50 [1],AC50 [2]
CCOC(=O)c1c(COc2ccccc2)oc2ccc(O)cc12,-26.4%,"116 nM [rising, full curve, poor fit]",
CN(C)CCCN(C(=O)COc1ccccc1)c1nc2ccc(Cl)cc2s1,-7.86%,,"4110 nM [falling, partial curve, poor fit]"
CC1=NOC(=O)/C1=C\c1ccc2c(c1)OCO2,-18.3%,"6510 nM [rising, single point]",
O=C(CCC(=O)N1CCN(c2ccccn2)CC1)Nc1nnc(C(F)(F)F)s1,8.9%,,"651 nM [falling, single point]"
CC1(C)Cc2c(sc3nnn(Cc4ccccc4)c(=O)c23)CO1,3.62%,,"651 nM [falling, full curve]"
COc1ccccc1NC(=O)Cc1nnc(SCC(=O)NC2CCCCC2C)n1C (configuration not stated),-31.6%,,"4.11 nM [falling, full curve, poor fit]"
CCN(CCn1cccn1)C(=O)CC1C(=O)NCCN1Cc1ccc(OC)c(OC)c1 (configuration not stated),1.1%,"6510 nM [falling, single point]",
O=C(O)c1cc(-c2ccccn2)n[nH]1,-17.3%,"1160 nM [falling, single point]","130 nM [falling, full curve, poor fit]"
CC1=N/C(=C\c2ccc([N+](=O)[O-])cc2)C(=O)N1c1ccc(Cl)cc1,22.4%,"1300 nM [falling, full curve]","36.6 nM [rising, full curve, poor fit]"
CN(c1ccccc1)S(=O)(=O)c1cccc(C(=O)NC2CC(C)(C)NC(C)(C)C2)c1,10%,"1840 nM [rising, single point]",
CCCC(=O)Nc1ccc(-c2nc3ncccc3o2)cc1,13.5%,"2310 nM [falling, single point]",
O=C(NCc1cccc(C(F)(F)F)c1)c1ccc2c(c1)OCO2,-15.5%,"18400 nM [falling, single point]",
C=CC[N+](C)(C)c1ccc(CCC(=O)CCc2ccc([N+](C)(C)CC=C)cc2)cc1,17.3%,,
CC(C)C(=O)NC(c1ccc([N+](=O)[O-])cc1)c1c(O)ccc2ccccc12 (configuration not stated),-29.4%,"14600 nM [falling, partial curve, poor fit]",
O=P(COCCO)(c1ccccc1)c1ccccc1,-35.9%,"259 nM [falling, full curve]","25.9 nM [falling, full curve, poor fit]"
COc1cccc(COC(=O)Cc2ccc(S(=O)(=O)N3CCOCC3)s2)c1OC,-49.9%,,"3660 nM [falling, full curve]"
Nc1c(C(=O)NCc2ccccc2)nnn1Cc1cccc(Cl)c1,,"184 nM [rising, full curve, poor fit]",
COc1ccccc1NC(=O)C(C)OC(=O)/C=C/c1ccc2ccccc2n1 (configuration not stated),-23.2%,"92 nM [falling, full curve, poor fit]",
Cc1ccc(NC(=O)CN2C(=O)CC(C)S(=O)(=O)c3ccccc32)cc1 (configuration not stated),0.382%,"29100 nM [rising, single point]",
CCc1ccc(NC(=O)CS(=O)CC(=O)Nc2ccc(-n3cnnn3)c(C)c2)cc1 (configuration not stated),6.25%,"5800 nM [rising, partial curve]",

SMILES,cell number change,AC50 [1],AC50 [2]
CC1CCC(NC(=O)Cn2c(=O)[nH]c3ccsc3c2=O)CC1 (configuration not stated),1.13%,"580 nM [rising, single point]",
CC(C)(C)n1nc2c(c1NC(=O)COc1ccc3ccccc3c1)CS(=O)C2 (configuration not stated),68%,"29100 nM [rising, single point]","3660 nM [rising, partial curve, poor fit]"
Cc1ccc(NC(=O)Cn2ccsc2=N)c([N+](=O)[O-])c1,7%,,
CCO[C@@H]1OC(C(=O)N2CCCCCCC2)=C[C@H](c2csc3ccccc23)[C@H]1CCCO,-16.2%,,
CC(=O)Nc1ccc(S(=O)(=O)N(CC(=O)O)Cc2ccccc2)cc1,-32.9%,"1160 nM [falling, full curve]","231 nM [falling, full curve]"
COc1ccccc1N1CCN(C(=O)c2ccc3[nH]c4c(c3c2)CCCC4)CC1,-0.825%,"29100 nM [falling, single point]",
O=C(NCCNC(=O)c1cc(OCC(F)(F)F)ccc1OCC(F)(F)F)Nc1ccc(OC(F)(F)F)cc1,-2.23%,"6510 nM [rising, partial curve]","6510 nM [rising, single point]"
COc1ccc(NC(=O)C23CCC(C)(C(=O)C2)C3(C)C)cc1 (configuration not stated),4.76%,"1030 nM [falling, full curve]","731 nM [falling, full curve, poor fit]"
Cc1ccc(N2CCN(c3ccc(NCc4nc5ccccc5n4C)cc3)CC2)cc1,36.6%,"731 nM [rising, partial curve, poor fit]","3260 nM [rising, partial curve]"
Cc1cc(C(=O)N2CCN(c3ncccn3)CC2)c(C)o1,-1%,"651 nM [falling, partial curve, poor fit]",
Cc1cccc(C(=O)N(Cc2ccco2)c2c(N)n(Cc3ccccc3)c(=O)[nH]c2=O)c1,-13%,"4110 nM [falling, single point]","4110 nM [falling, single point]"
Cc1nn2c(-c3ccncc3)ccnc2c1Br,65.1%,,"29100 nM [rising, single point]"
Cc1ccnc2c(N3C(=O)C4C5c6ccccc6C(c6ccccc65)C4C3=O)cccc12 (configuration not stated),-29.1%,"651 nM [falling, full curve, poor fit]",
Cc1c(C(=O)OCCN2CCCCC2)oc2ccccc12,9.12%,,
COc1ccc(OCc2ccc(-c3nc4ccccc4c(=O)n3N)o2)cc1,7.64%,,
O=C(N/N=C/c1cccc(NC(=O)c2ccc(Cl)cc2)c1)c1ccc(O)cc1,16.1%,"6510 nM [rising, single point]",
Cc1cc2oc(=O)sc2cc1NS(=O)(=O)c1ccccc1,,"116 nM [falling, full curve, poor fit]",
CCCCn1c2ccccc2c2nnc(SCCN3CCCCC3)nc21,19.4%,,
COc1ccc(-c2nc3cc(C)ccn3c2NCc2ccc3c(c2)OCO3)cc1,-15.6%,"7310 nM [falling, partial curve]",
Nc1nc(N)nc(-c2cc(O)ccc2O)n1,-40%,,"25900 nM [falling, single point]"

# Structures above containing a COOH group, in the order listed:
SMILES,cell number change,AC50 [1],AC50 [2]
O=C(O)c1cc(-c2ccccn2)n[nH]1,-17.3%,"1160 nM [falling, single point]","130 nM [falling, full curve, poor fit]"
CC(=O)Nc1ccc(S(=O)(=O)N(CC(=O)O)Cc2ccccc2)cc1,-32.9%,"1160 nM [falling, full curve]","231 nM [falling, full curve]"

# Following part:

SMILES,cell number change,AC50 [1],AC50 [2]
O=C(O)C1C2C=CC(O2)C1C(=O)Nc1ccc(S(=O)(=O)Nc2ccccc2)cc1 (configuration not stated),,"116 nM [falling, full curve, poor fit]",
COc1cc(-c2cc(N)n(S(=O)(=O)c3ccc(F)cc3)n2)cc(OC)c1OC,-32.6%,"32600 nM [falling, single point]","29100 nM [falling, single point]"
CC1=C(C(=O)Nc2ccc(C(=O)NCCC(C)C)cc2)SCCO1,34.5%,"651 nM [falling, full curve]","20600 nM [rising, single point]"
CC(=O)c1cn(N(C)c2ncc(C(F)(F)F)cc2Cl)c(=O)[nH]c1=O,-12.3%,,
S=C(Nc1ccc(Cl)c(Cl)c1)N1CCCC1,-25.5%,,
CC1CC(C)CN(CCCNC(=O)c2ccc3c(c2)ncn3C2CCCC2)C1 (configuration not stated),-10.4%,"130 nM [falling, full curve, poor fit]",
O=C(Nc1nc(-c2cc(F)ccc2F)cs1)c1cccc(N2C(=O)CCC2=O)c1,-11.5%,"20600 nM [falling, partial curve]",
COc1ccc(/C=N\NC(=O)c2ccccc2Br)cc1COc1c(F)c(F)cc(F)c1F,-30.2%,"580 nM [rising, single point]","29100 nM [falling, single point]"
O=C(COc1ccc(Br)cc1)N(Cc1ccccc1)c1ccccn1,6.61%,,
Cc1cc(N/N=C/c2c(O)ccc3ccccc23)nc(-c2ccccc2O)n1,-16.5%,"1160 nM [falling, single point]",
Cc1cc(NC(=O)Nc2ccccc2F)ccc1Br,-10.7%,"29100 nM [falling, single point]",
Cc1ccc(NC(=O)CS(=O)(=O)c2cn(C)c3ccccc23)c(C)c1,1.99%,"20.6 nM [rising, full curve, poor fit]",
O=C(NCc1ccc(F)cc1)NC(=O)c1ccc(Cl)cc1,19.5%,"11600 nM [rising, single point]",
O=C(CC(c1ccc(F)cc1)c1ccco1)N1CCOCC1 (configuration not stated),-6.92%,"651 nM [rising, single point]",
Cc1ccc(NC(=O)c2ccc(CSc3nnc(-c4ccncc4)n3C)cc2)cc1,18.1%,,
COc1ccccc1N1CCN(C(=O)c2cccc(S(=O)(=O)N3CCCCCC3)c2)CC1,11.1%,,
COc1nc(Nc2ccc([N+](=O)[O-])cc2)nc(NC(C)C)n1,-3.43%,"6510 nM [falling, single point]",
CCCC(/C=C/c1ccc(OC(C)=O)cc1)=C1/c2ccccc2C(=O)N1c1ccccc1,-17.4%,,"820 nM [falling, single point]"
O=C(CCSc1ccccc1)NNC(=O)c1ccccc1F,7.19%,"20600 nM [rising, partial curve, poor fit]","6510 nM [falling, single point]"
